# Results taken from PubChem BioAssay AID504444 (National Center for Advancing Translational Sciences (NCATS), 2011).
# In all, about 360,000 compounds went through this assay and about 7,500 (2.1%) were called active. Inconclusive results, whose numbers are uncertain, are shown with a selection of clear calls. The call rests on the fitted dose curve; in most records, active means well fitted inhibition curve with a large enough effect; inconclusive means small, poorly fitted or top-dose-only effect, or effect the other way; inactive means flat fitted curve, though single readings scatter. Potencies of inconclusive entries are doubtful fits and often do not repeat.
# Experiment: Nrf2 qHTS screen for inhibitors; further: nearly all actives have a fitted effect of over 60% in size
# Conditions: A549 ARE-Fluc reporter, luciferase luminescence, 18-24 h; activity change, negative = inhibition: at 46 µM (top of the series)
# Method in brief: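 Quantitative HTS in A549 cells stably bearing an antioxidant response element-firefly luciferase construct. Inhibition of Nrf2-driven transcription was scored by luminescence after 18-24 h of compound exposure at 37 °C.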
# On the % scale 0 is the no-effect control and ±100 the full control effect; potency means the concentration at half of the fitted maximal effect.
Compound,Potency,"activity change, negative = inhibition"
Cc1ccsc1/C=N/NC(=O)c1ccc([N+](=O)[O-])cc1,"inconclusive: 0.517 µM [activator, full curve]",–
CCc1ccc(C(=O)COC(=O)c2cncc(Br)c2)cc1,"inconclusive: 6.51 µM [falling, partial curve, poor fit]",–
CC[C@@]1(C(=O)OC)N[C@H](CN(C)C(=O)Nc2ccc(OC)cc2)[C@@H]2C(=O)N(C)C(=O)[C@@H]21,"inconclusive: 6.51 µM [falling, single point]",–
O=c1n(CC2CO2)c(=O)n(CC2CO2)c(=O)n1CC1CO1 (configuration not stated),"inconclusive: 2.06 µM [falling, partial curve, poor fit]",–
Cc1ccccc1NC(=O)c1ccc(NC(=O)C2CCCO2)cc1 (configuration not stated),–,inactive: -6.75%
CCOc1ccc(NC(=O)CN(C)C(=O)C2CCN(c3ncnc4sc(C)c(C)c34)CC2)cc1OCC,"inconclusive: 29.1 µM [falling, single point]",–
COc1ccc(OCC(=O)Nc2ccc(N3CCN(Cc4ccccc4F)CC3)cc2)cc1,"inconclusive: 0.517 µM [falling, full curve]",–
O=C(NCC1CCCO1)c1cccc(S(=O)(=O)Nc2cccc(C(F)(F)F)c2)c1 (configuration not stated),"inconclusive: 29.1 µM [falling, partial curve, poor fit]",–
CCOC(=O)N1CCC(NC(=O)c2cc(S(=O)(=O)N3CCc4ccccc43)cn2C)CC1,"inconclusive: 13 µM [falling, partial curve, poor fit]",–
COc1ccc(-c2onc(C)c2C)cc1S(=O)(=O)N1CCC(C)CC1,"inconclusive: 25.9 µM [falling, partial curve, poor fit]",–
N/C(=N\OC(=O)c1cc(Cl)ccc1Cl)c1ccncc1,"inconclusive: 3.66 µM [activator, partial curve]",–
Cc1csc2c(=O)sc(NC(=O)c3cccs3)nc12,"inconclusive: 29.1 µM [falling, partial curve, poor fit]",–
Cc1sc2ncn(/N=C/c3ccco3)c(=O)c2c1C,"inconclusive: 8.2 µM [activator, partial curve]",–
CC(C)c1cc(C(C)C)c(S(=O)(=O)Nc2cccc3cccnc23)c(C(C)C)c1,"inconclusive: 29.1 µM [falling, single point]",–
Cc1ccc(-c2nc(C(Cl)Cl)c3ccccc3n2)cc1,"inconclusive: 29.1 µM [falling, single point]",–
CC(=O)c1ccc(NC(=S)NCCc2ccc(S(N)(=O)=O)cc2)cc1,"inconclusive: 2.59 µM [activator, full curve]",–
O=C(N/N=C/c1ccccc1O)c1ccncc1,"inconclusive: 29.1 µM [falling, single point]",–
CCC(C)NC(=O)c1sc2nc(C)c(C(=O)Nc3ccc(Cl)cc3)c(-c3ccc(Br)cc3)c2c1N (configuration not stated),–,inactive: 5.72% [at 9.27 µM]
Cc1nc2nc(-c3cccnc3)nn2c(C)c1Cl,"inconclusive: 16.4 µM [activator, partial curve, poor fit]",–
Cc1ccc(NC(=O)CSc2nnc(-c3ccc(S(=O)(=O)N4CCCC4)cc3)o2)cc1C,"inconclusive: 32.6 µM [falling, single point]",–
O=c1nc2c(-c3cccc(Br)c3)n[nH]n2c2ccccc12,"inconclusive: 5.8 µM [activator, full curve]",–

Compound,Potency,"activity change, negative = inhibition"
Cc1cccc2[nH]c3c(N4CCC5(CC4)OCCO5)ncnc3c12,"inconclusive: 10.3 µM [falling, partial curve, poor fit]",–
CCCOc1cccc(C(=O)Nc2ccc(-c3nc4ccccc4o3)cc2)c1,"inconclusive: 29.1 µM [falling, single point]",–
COc1cc(OC)cc(-n2c(=O)c3ccccc3n(CC(=O)NCCc3ccc(OC)c(OC)c3)c2=O)c1,–,inactive: -5.21% [at 9.27 µM]
CC(C)(C)N(NC(=O)Nc1ccc(Cl)c(Cl)c1)C(=O)c1ccccc1,"inconclusive: 29.1 µM [falling, single point]",–
Cn1c(=O)n(C)c2cc(S(=O)(=O)N3CCCc4ccccc43)ccc21,"inconclusive: 18.4 µM [falling, partial curve]",–
Cc1ccc(C)c(S(=O)(=O)Nc2ccc3sc(C)nc3c2)c1,"inconclusive: 22.4 µM [falling, single point]",–
N#Cc1ccc(CSc2ccc(S(=O)(=O)N3CCCC3)cn2)cc1,"inconclusive: 29.1 µM [falling, single point]",–
CCOCCCNC(=O)c1ccc(C2SCC(=O)N2Cc2ccccc2)cc1 (configuration not stated),"inconclusive: 9.2 µM [falling, partial curve]",–
O=C(OC(c1ccc(NS(=O)(=O)c2ccccc2)cc1)(C(F)(F)F)C(F)(F)F)c1ccccc1,"inconclusive: 14.6 µM [falling, single point]",–
CC(C)(C)c1cc(C(=O)NNC(=O)Nc2ccccc2)n(Cc2ccccc2)n1,"inconclusive: 9.2 µM [falling, partial curve, poor fit]",–
Cc1ccc(-c2nnc(CSc3nnc(C)s3)o2)cc1,"inconclusive: 5.8 µM [activator, partial curve, poor fit]",–
Cc1nc(SC2CC(=O)N(c3cc(Cl)cc(Cl)c3)C2=O)nc2c1CCCC2 (configuration not stated),"inconclusive: 29.1 µM [falling, partial curve, poor fit]",–
Cc1ccc(NC(=O)c2ccc3nc[nH]c3c2)nc1,–,inactive: -2.83%
COc1ccccc1N1CCN(C(=O)c2c3c(nc4ccccc24)C(=O)N(C2CCCCC2)C3)CC1,–,inactive: 26.1%
COc1ccc(NC(=O)c2sccc2SCc2cccc(C(F)(F)F)c2)cc1,"inconclusive: 14.6 µM [falling, partial curve, poor fit]",–
Cc1ccc(C)c(N2CCN(C(=O)c3c4c(nc5ccccc35)C(=O)N(C3CCCCC3)C4)CC2)c1,"inconclusive: 32.6 µM [falling, single point]",–
COc1ccc(CNC(=O)C(=O)Nc2cccc(C)c2C)cc1,"inconclusive: 2.06 µM [falling, full curve, poor fit]",–
CCN(CC)C(=O)Cn1cc(S(=O)(=O)CC(=O)NC2CCCCC2)c2ccccc21,"inconclusive: 11.6 µM [activator, partial curve, poor fit]",–
CSc1ccc(/C=C(\NC(=O)c2ccc(C)cc2)C(=O)NN)cc1,–,inactive: 1.44%
CCc1[nH]nc(C(=O)NC2CCCc3c2cnn3-c2cc(C)cc(C)c2)c1C (configuration not stated),"inconclusive: 23.1 µM [activator, single point]",–
COc1ccc2oc(-c3ccc(NC(=O)c4ccc(Cl)cc4Cl)cc3)nc2c1,"inconclusive: 2.91 µM [falling, partial curve, poor fit]",–

# Given tab-delimited: entries from further up
Compound	Potency	activity change, negative = inhibition
CCCOc1cccc(C(=O)Nc2ccc(-c3nc4ccccc4o3)cc2)c1	inconclusive: 29.1 µM [falling, single point]	–
COc1cc(OC)cc(-n2c(=O)c3ccccc3n(CC(=O)NCCc3ccc(OC)c(OC)c3)c2=O)c1	–	inactive: -5.21% [at 9.27 µM]
CC(C)(C)N(NC(=O)Nc1ccc(Cl)c(Cl)c1)C(=O)c1ccccc1	inconclusive: 29.1 µM [falling, single point]	–
Cn1c(=O)n(C)c2cc(S(=O)(=O)N3CCCc4ccccc43)ccc21	inconclusive: 18.4 µM [falling, partial curve]	–
Cc1ccc(C)c(S(=O)(=O)Nc2ccc3sc(C)nc3c2)c1	inconclusive: 22.4 µM [falling, single point]	–
N#Cc1ccc(CSc2ccc(S(=O)(=O)N3CCCC3)cn2)cc1	inconclusive: 29.1 µM [falling, single point]	–
CCOCCCNC(=O)c1ccc(C2SCC(=O)N2Cc2ccccc2)cc1 (configuration not stated)	inconclusive: 9.2 µM [falling, partial curve]	–
O=C(OC(c1ccc(NS(=O)(=O)c2ccccc2)cc1)(C(F)(F)F)C(F)(F)F)c1ccccc1	inconclusive: 14.6 µM [falling, single point]	–
CC(C)(C)c1cc(C(=O)NNC(=O)Nc2ccccc2)n(Cc2ccccc2)n1	inconclusive: 9.2 µM [falling, partial curve, poor fit]	–
Cc1ccc(-c2nnc(CSc3nnc(C)s3)o2)cc1	inconclusive: 5.8 µM [activator, partial curve, poor fit]	–
Cc1nc(SC2CC(=O)N(c3cc(Cl)cc(Cl)c3)C2=O)nc2c1CCCC2 (configuration not stated)	inconclusive: 29.1 µM [falling, partial curve, poor fit]	–
COc1ccccc1N1CCN(C(=O)c2c3c(nc4ccccc24)C(=O)N(C2CCCCC2)C3)CC1	–	inactive: 26.1%
COc1ccc(NC(=O)c2sccc2SCc2cccc(C(F)(F)F)c2)cc1	inconclusive: 14.6 µM [falling, partial curve, poor fit]	–
Cc1ccc(C)c(N2CCN(C(=O)c3c4c(nc5ccccc35)C(=O)N(C3CCCCC3)C4)CC2)c1	inconclusive: 32.6 µM [falling, single point]	–
COc1ccc(CNC(=O)C(=O)Nc2cccc(C)c2C)cc1	inconclusive: 2.06 µM [falling, full curve, poor fit]	–
CCN(CC)C(=O)Cn1cc(S(=O)(=O)CC(=O)NC2CCCCC2)c2ccccc21	inconclusive: 11.6 µM [activator, partial curve, poor fit]	–
CSc1ccc(/C=C(\NC(=O)c2ccc(C)cc2)C(=O)NN)cc1	–	inactive: 1.44%
CCc1[nH]nc(C(=O)NC2CCCc3c2cnn3-c2cc(C)cc(C)c2)c1C (configuration not stated)	inconclusive: 23.1 µM [activator, single point]	–
COc1ccc2oc(-c3ccc(NC(=O)c4ccc(Cl)cc4Cl)cc3)nc2c1	inconclusive: 2.91 µM [falling, partial curve, poor fit]	–

# (more compounds)

Compound,Potency,"activity change, negative = inhibition"
O=C1/C(=C/c2ccccc2Cl)SC(=S)N1CCCC(=O)N(CCO)c1ccccc1,active: 16.4 µM,–
COc1ccccc1S(=O)(=O)Nc1ccc2nc(C)sc2c1,"inconclusive: 13 µM [falling, partial curve, poor fit]",–
Oc1ccc(C[C@H]2CNC(=S)N2CC2CCCN2C[C@H](Cc2ccc(O)cc2)N2C[C@H](Cc3ccccc3)N(CC3CCCCCC3)C2=S)cc1 (some centres not stated),"inconclusive: 23.1 µM [falling, single point]",–
O=S(=O)(c1ccc(Cl)cc1)N1CCN(c2ccccn2)CC1,"inconclusive: 23.1 µM [falling, partial curve, poor fit]",–
CC(=O)NC1CCC(=O)C=C1c1ccccc1 (configuration not stated),"inconclusive: 7.31 µM [falling, partial curve, poor fit]",–
O=C(NC1CCCCC1)c1nc2c(nnn2Cc2ccccc2Cl)c(=O)[nH]1,"inconclusive: 29.1 µM [falling, single point]",–
COc1ccc(-c2csc(Nc3cc(C)ccn3)n2)cc1OC,"inconclusive: 29.1 µM [falling, single point]",–
O=C(c1ccc2nc(-c3ccco3)c(-c3ccco3)nc2c1)N1CCN(c2ccccc2)CC1,"inconclusive: 29.1 µM [falling, single point]",–
O=S(=O)(c1ccc(SCCOc2ccccc2Cl)nc1)N1CCCC1,"inconclusive: 23.1 µM [falling, single point]",–
Cc1cccc(NC(=O)N2CCN3CCCCC3C2)c1C (configuration not stated),"inconclusive: 29.1 µM [activator, single point]",–
COc1cc(NC(=O)CCS(=O)(=O)c2ccc3c(c2)n(C)c(=O)c(=O)n3C)cc(OC)c1,"inconclusive: 0.082 µM [activator, partial curve, poor fit]",–
Cc1ccc2nc(CSc3nnc(Nc4ccccc4C)s3)cc(=O)n2c1,–,inactive: 9.02%
Cc1cccc(C)c1Nc1c(-c2ccsc2)nc2cccc(C)n12,"inconclusive: 29.1 µM [falling, single point]",–
CCCSc1ccc([C@H]2N[C@@](C)(C(=O)OC)[C@H]3C(=O)N(C)C(=O)[C@@H]23)cc1,–,inactive: -27.7%
COc1ccc(C(=O)Sc2ccc(Cl)cc2)cc1OC,active: 20.6 µM,–
O=C(N/N=C/c1ccc(Br)cc1)c1ccccc1-n1cccc1,"inconclusive: 3.66 µM [falling, partial curve, poor fit]",–
Cc1ccccc1OCCn1cc(/C(N)=N/O)c2ccccc21,active: 23.1 µM,–
COCCSc1nc2c(c(=O)[nH]c(=O)n2C)n1CCCc1ccccc1,"inconclusive: 11.6 µM [falling, partial curve]",–
O=C(NCCC1=CCCCC1)c1cccc(S(=O)(=O)N2CCCCC2)c1,"inconclusive: 29.1 µM [falling, single point]",–
Cc1ccc(-c2nc3ccccn3c2C=O)cc1,"inconclusive: 9.2 µM [activator, partial curve]",–
